Measurements as given in PMC10854934.
Results are given in words; binding and its absence hold for the method and conditions named. Binding seen in cells or lysates may run through a third protein. Some results given as binding are weak or reduced against the parent protein; the word gives no strength.

The chains behind the UniProt entries cited, without tags or fusion partners.
UniProt P49407: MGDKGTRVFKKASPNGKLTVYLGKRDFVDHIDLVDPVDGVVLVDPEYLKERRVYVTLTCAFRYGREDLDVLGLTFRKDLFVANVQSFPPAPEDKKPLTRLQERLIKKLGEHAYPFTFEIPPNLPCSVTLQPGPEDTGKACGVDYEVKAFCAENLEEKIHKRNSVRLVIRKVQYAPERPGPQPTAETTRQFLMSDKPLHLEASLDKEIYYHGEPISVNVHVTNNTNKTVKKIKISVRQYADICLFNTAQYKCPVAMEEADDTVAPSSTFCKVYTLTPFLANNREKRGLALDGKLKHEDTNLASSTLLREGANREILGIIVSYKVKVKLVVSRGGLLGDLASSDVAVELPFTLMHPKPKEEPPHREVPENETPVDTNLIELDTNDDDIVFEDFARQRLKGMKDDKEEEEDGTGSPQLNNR
UniProt P41143: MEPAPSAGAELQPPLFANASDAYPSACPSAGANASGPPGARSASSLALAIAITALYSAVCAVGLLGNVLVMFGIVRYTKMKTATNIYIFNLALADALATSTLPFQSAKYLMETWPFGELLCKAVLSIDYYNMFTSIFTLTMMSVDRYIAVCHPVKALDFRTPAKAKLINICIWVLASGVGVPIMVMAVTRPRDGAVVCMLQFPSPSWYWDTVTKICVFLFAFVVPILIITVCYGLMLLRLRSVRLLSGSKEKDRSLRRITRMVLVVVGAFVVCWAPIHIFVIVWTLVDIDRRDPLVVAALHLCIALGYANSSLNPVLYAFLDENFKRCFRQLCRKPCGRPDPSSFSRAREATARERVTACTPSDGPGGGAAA

Biological target: β-arrestin 1 tagged with CFP (CFP-βarr1) (UniProt P49407)
Assay: co-IP; nuclear extracts (100 μg) of N/TERT-1 keratinocytes overexpressing GFP-DOPr and CFP-βarr1, without or with 100 nM Met-ENK for 5 min; anti-CFP antibody overnight at 4 °C in 50 mM Tris-HCl, 150 mM NaCl, 0.5% NP40; Protein G and Protein A Dynabeads; Western blot for βarr1 and DOPr

With “delta-opioid receptor tagged with GFP (DOPr-GFP) (from UniProt P41143 1-372)” the binding was “binds”.
